Assay results from patent US20160318982A1.
No constants are given. Whether binding was seen depends on the method and setting. Some binding calls cover weakened binding; strength is not graded here. Tags and fused reporters may be left off the sequences shown.

How the values were obtained:
[1] = target: T1, Biotin-G-G-His×6 biotinylated peptide conjugate; test: native PAGE band shift, drop-wise mixing
T1 sequence (peptide, N-terminus biotinylated): GGHHHHHH

[2] = target: T1, Biotin-G-G-His×6 biotinylated peptide conjugate; test: native PAGE band shift, streptavidin mixed with a dilution series of the peptide
[3] = target: T2, His×6-G×4-Biotin biotinylated peptide conjugate; test: as above
T2 sequence (peptide, C-terminus biotinylated): HHHHHHGGGG

[4] = target: T1, Biotin-G-G-His×6 biotinylated peptide conjugate; test: native PAGE band shift, one-step mixing (6 mL of 10 µM peptide with 0.8 mL of 20 µM streptavidin)

Measured: binding

streptavidin (salt-free, Sigma 85878) (from UniProt P22629 37-163)
binds: all assays above
